Experimental findings from PubChem BioAssay AID210 (DTP/NCI, 2004) are described below.

The subject of the experiment is CD2F1 mice, ip Colon 26 adenocarcinoma, median survival T/C. The experiment can be described thus: NCI In Vivo Anticancer Drug Screen. Data for tumor model Colon 26 Adenocarcinoma (intraperitoneal) in CD2F1 (CDF1) mice. As to conditions: T/C endpoint: median survival time, higher T/C = longer survival. The procedure:
The antitumor activity of compounds was measured in mice bearing transplantable tumors. Survival or tumor size were measured and the results are expressed as the measurement made in the treated group (T) divided by the measurement made in the vehicle treated control group (C). The tumor model used in this assay is Colon 26 Adenocarcinoma (intraperitoneal) in CD2F1 (CDF1) mice

The mark [1] stands for this setting: dose: 64.0 mg/kg/injection, schedule: Q04DX003 (ip), vehicle: Klucel (hydroxypropylcellulose) (HPC).
Setting [2] is: dose: 128.0 mg/kg/injection, schedule: Q04DX003 (ip), vehicle: Klucel (hydroxypropylcellulose) (HPC).

SMILES strings stand for the structures. The list is a part of this screen's results and no random one: it is rich in T/C values a quarter to a half above the control, in often repeated tests (any T/C) and in doses without a T/C. Other doses and runs of a compound stand elsewhere. T/C: endpoint of the treated group in % of that of the vehicle group. Some entries give survivors of the animals treated and no T/C: the source files T/C as zero there, which appears to mark a toxic dose or a test without result, not a measured value. Some doses without a T/C left all or most animals alive at the check, yet need not have been tolerated: the source hardly ever lists a survival T/C far under the control, and the zero likely stands for such cases as well. Survivors were counted at the toxicity check, usually on the fifth day, unless a day is given; later deaths do not show. Schedule codes are those of the source, read here as Q, the interval in days (D) or hours (H), X, the number of doses. Some entries were tested several times; their values stand side by side, smallest first. Some molecules as drawn cover several salts, stereoisomers or complexes of the source; a dose is that of the sample tested. Signs of the kind (2×) stand for listed records that agree. Where survival is the endpoint, the PubChem record calls one and a half times the control and up active, and a quarter to a half above the control has no call in these data; cut-offs in other NCI protocols can differ. Some T/C values are followed by the survivors on the day toxicity was checked, most often the fifth; where none is given, no animal had died by that day.

As to `Cc1[nH]c(=O)[nH]c(=O)c1N(CCF)CCCl`, the T/C runs as follows: (dose: 8.0 mg/kg/injection, schedule: Q04DX003 (ip), vehicle: Klucel (hydroxypropylcellulose) (HPC), evaluated on day 60) 106 % of control; (dose: 8.0 mg/kg/injection, schedule: Q04DX003 (ip), vehicle: Klucel (hydroxypropylcellulose) (HPC), evaluated on day 70) 91, 100, 102, 106 % of control; (dose: 16.0 mg/kg/injection, schedule: Q04DX003 (ip), vehicle: Klucel (hydroxypropylcellulose) (HPC), evaluated on day 60) 103 % of control; (dose: 16.0 mg/kg/injection, schedule: Q04DX003 (ip), vehicle: Klucel (hydroxypropylcellulose) (HPC), evaluated on day 70) 102, 123, 127, 129 % of control; (dose: 32.0 mg/kg/injection, schedule: Q04DX002 (ip), vehicle: Klucel (hydroxypropylcellulose) (HPC)) 138 % of control [9 of 10 alive]; (dose: 32.0 mg/kg/injection, schedule: Q04DX003 (ip), vehicle: Klucel (hydroxypropylcellulose) (HPC), evaluated on day 60) 122 % of control. Besides, the T/C by setting is: (dose: 32.0 mg/kg/injection, schedule: Q04DX003 (ip), vehicle: Klucel (hydroxypropylcellulose) (HPC), evaluated on day 70) 97 [9 of 10 alive], 131, 166, 222 % of control; (dose: 64.0 mg/kg/injection, schedule: Q04DX003 (ip), vehicle: Klucel (hydroxypropylcellulose) (HPC), evaluated on day 60) 117 % of control; (dose: 64.0 mg/kg/injection, schedule: Q04DX003 (ip), vehicle: Klucel (hydroxypropylcellulose) (HPC), evaluated on day 70) 174 % of control; (dose: 128.0 mg/kg/injection, schedule: Q04DX003 (ip), vehicle: Klucel (hydroxypropylcellulose) (HPC), evaluated on day 60) 138 % of control; (dose: 128.0 mg/kg/injection, schedule: Q04DX003 (ip), vehicle: Klucel (hydroxypropylcellulose) (HPC), evaluated on day 70) 152 % of control. Also, the survivor count is recorded as 5 of 10 (dose: 64.0 mg/kg/injection, schedule: Q04DX002 (ip), vehicle: Klucel (hydroxypropylcellulose) (HPC)); 7 of 10, 9 of 10, 10 of 10 under setting [1]; 0 of 10 (dose: 128.0 mg/kg/injection, schedule: Q04DX002 (ip), vehicle: Klucel (hydroxypropylcellulose) (HPC)); 0 of 10 under setting [2].
For `O=C1c2ccccc2C(=O)c2c(NCCNCCO)ccc(NCCNCCO)c21`, the T/C (dose: 2.0 mg/kg/injection, schedule: Q01DX009 (ip), vehicle: acid diluted with saline) was 142 % of control; the T/C (dose: 10.4 mg/kg/injection, schedule: Q04DX003 (ip), vehicle: saline) was 145 % of control; the T/C (dose: 21.6 mg/kg/injection, schedule: Q01DX001 (ip), vehicle: saline) was 136 % of control; the T/C (dose: 32.0 mg/kg/injection, schedule: Q04DX003 (ip), vehicle: Klucel (hydroxypropylcellulose) (HPC)) was 141 % of control; the T/C (dose: 36.0 mg/kg/injection, schedule: Q01DX001 (ip), vehicle: saline) was 138 % of control; the T/C (dose: 60.0 mg/kg/injection, schedule: Q01DX001 (ip), vehicle: saline) was 127 % of control. For the same molecule, the T/C reads like this: under setting [1], 148 % of control; (dose: 100.0 mg/kg/injection, schedule: Q01DX001 (ip), vehicle: saline) 138 % of control [9 of 10 alive]. Also, the survivor count runs as follows: (dose: 20.0 mg/kg/injection, schedule: Q01DX009 (ip), vehicle: saline) 10 of 10; (dose: 30.0 mg/kg/injection, schedule: Q01DX009 (ip), vehicle: saline) 10 of 10; (dose: 32.0 mg/kg/injection, schedule: Q01DX009 (ip), vehicle: saline) 10 of 10; (dose: 40.0 mg/kg/injection, schedule: Q01DX009 (ip), vehicle: saline) 10 of 10 (2×); (dose: 100.0 mg/kg/injection, schedule: Q07DX003 (iv), vehicle: Klucel (hydroxypropylcellulose) (HPC)) 4 of 10; under setting [2], 4 of 10, 7 of 10, 9 of 10. For the same molecule, the survivor count reads like this: (dose: 128.0 mg/kg/injection, schedule: Q04DX003 (ip), vehicle: water) 5 of 10 and 6 of 10; (dose: 167.0 mg/kg/injection, schedule: Q01DX001 (ip), vehicle: saline) 2 of 10; (dose: 200.0 mg/kg/injection, schedule: Q07DX003 (iv), vehicle: Klucel (hydroxypropylcellulose) (HPC)) 4 of 10; (dose: 256.0 mg/kg/injection, schedule: Q04DX003 (ip), vehicle: Klucel (hydroxypropylcellulose) (HPC)) 0 of 10, 0 of 9, 1 of 10; (dose: 256.0 mg/kg/injection, schedule: Q04DX003 (ip), vehicle: water) 2 of 10 and 5 of 10; (dose: 400.0 mg/kg/injection, schedule: Q07DX003 (iv), vehicle: Klucel (hydroxypropylcellulose) (HPC)) 2 of 10. Further, under “dose: 512.0 mg/kg/injection, schedule: Q04DX003 (ip), vehicle: Klucel (hydroxypropylcellulose) (HPC)”, the survivor count was 0 of 10 (2×).
Turning to `O=C1c2ccccc2C(=O)c2c(NCCCNCCO)ccc(NCCCNCCO)c21`, the T/C (dose: 8.0 mg/kg/injection, schedule: Q01DX009 (ip), vehicle: acid diluted with saline) is 134 % of control. Also, the survivor count (dose: 128.0 mg/kg/injection, schedule: Q01DX009 (ip), vehicle: acid diluted with saline) is 0 of 10.
As for `CC(=O)[C@]1(O)Cc2c(O)c3c(c(O)c2[C@@H](OC2CC(N)C(O)C(C)O2)C1)C(=O)c1c(O)cccc1C3=O` (some centres not stated), the T/C is 142 % of control (dose: 1.2 mg/kg/injection, schedule: Q07DX002 (iv), vehicle: water); 130 % of control (dose: 216.0 micrograms/kg/injection, schedule: Q04DX003 (ip), vehicle: water); 141 % of control (dose: 360.0 micrograms/kg/injection, schedule: Q04DX003 (ip), vehicle: water). For the setting “dose: 1000.0 micrograms/kg/injection, schedule: Q04DX003 (ip), vehicle: water”, the survivor count is 8 of 8.
As for `COc1cccc2c1C(=O)c1c(O)c3c(c(O)c1C2=O)C[C@@](O)(C(=O)COC(=O)c1cccnc1)C[C@@H]3OC1CC(N)C(O)C(C)O1` (some centres not stated), the survivor count (dose: 39.0 mg/kg/injection, schedule: Q07DX002 (iv), vehicle: alkali diluted with saline) was 4 of 10.
For `CO[C@H]1C[C@@H]2CC[C@@H](C)[C@@](O)(O2)C(=O)C(=O)N2CCCC[C@H]2C(=O)O[C@H]([C@H](C)C[C@@H]2CC[C@@H](O)[C@H](OC)C2)CC(=O)[C@H](C)C=C(C)[C@@H](O)[C@@H](OC)C(=O)[C@H](C)C[C@H](C)/C=C/C=C/C=C1C`, the survivor count (dose: 400.0 mg/kg/injection, schedule: Q04DX003 (ip), vehicle: saline with Tween-80) is listed as 10 of 10.
With `CC(=O)OCC1(C)C(O)CCC2(C)C1CCC1CC3CC12CCC3(O)CO` (configuration not stated), the survivor count (dose: 200.0 mg/kg/injection, schedule: Q04DX002 (ip), vehicle: distilled water + Tween-80) was 9 of 10.
For the molecule `CCC(C)C(=O)O[C@H]1C(=O)O[C@@H]2C[C@H]3C(C)=CC(=O)[C@@H](O)[C@]3(C)[C@H]3[C@@H](O)[C@H](O)[C@@]4(C)OC[C@]32[C@@H]14` (some centres not stated), the survivor count runs as follows: (dose: 4.0 mg/kg/injection, schedule: Q04DX002 (ip), vehicle: saline) 6 of 10; (dose: 8.0 mg/kg/injection, schedule: Q04DX002 (ip), vehicle: saline) 4 of 10.
